PubChem BioAssay AID504808 – Drosophila RNAi Screening Center | 2011
In all, the deposit lists about 21,000 reagents; this is a random part of those with a known target gene and a result. Of all reagents, 18 (0.084%) were called active. 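Raw counts without plate normalisation, one of two replicates; the ratio scores behind the calls were not deposited.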 Unmarked entries are inactive. Names joined by + are all predicted targets of the reagent. Not given: the amount of reagent, the time to read-out.

- Screen: 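Chromatin factors that keep E2F targets switched off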 (primary screen)
- Cell system: Drosophila S2 cells
- Reagents: long dsRNA against Drosophila genes
- Measured: 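Firefly luciferase driven by E2F sites, normalised to Renilla luciferase on the same minimal promoter, measured by plate reader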
- Direction: E2F firefly: higher = more E2F reporter activity; Renilla normaliser: higher = more normaliser reporter signal
- Call rule: 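a knock-down counted as active when the firefly/Renilla E2F signal rose above 50%, a threshold chosen arbitrarily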

| predicted target | dsRNA | E2F firefly, rep 1 | Renilla normaliser, rep 1 |
| --- | --- | --- | --- |
| CG33271 | DRSC10583 | 94679 | 5948 |
| CG13670 | DRSC10029 | 96970 | 3896 |
| PIG-H + Kmn2 | DRSC12653 | 1.02e5 | 5449 |
| CG13578 | DRSC04214 | 1.00e5 | 4683 |
| CG34342 | DRSC09756 | 1.00e5 | 4094 |
| CG10077 | DRSC09691 | 58092 | 3058 |
| CG13870 | DRSC06429 | 1.31e5 | 5295 |
| mfr (misfire) | DRSC10543 | 98024 | 4213 |
| Ets21C (Ets at 21C) | DRSC00751 | 1.84e5 | 6565 |
| CG18585 | DRSC02678 | 98047 | 4028 |
| mspo (M-spondin) | DRSC07652 | 97634 | 4286 |
| Lim3 | DRSC02475 | 1.02e5 | 4413 |
| Lim3 | DRSC03363 | 1.04e5 | 5402 |
| cpx (complexin) | DRSC11999 | 84927 | 3588 |
| Psi (P-element somatic inhibitor) | DRSC07519 | 1.54e5 | 5829 |
| CG12480 | DRSC19460 | 1.49e5 | 5894 |
| Ilp3 (Insulin-like peptide 3) | DRSC10168 | 1.15e5 | 6448 |
| CG17329 | DRSC01926 | 97201 | 4004 |
| EMC8-9 (ER membrane protein complex subunit 8/9) | DRSC04380 | 73390 | 3150 |
| Adgf-D (Adenosine deaminase-related growth factor D) | DRSC16521 | 1.12e5 | 5935 |
| Mbs (Myosin binding subunit) | DRSC09414 | 1.31e5 | 3391 |
| Mbs (Myosin binding subunit) | DRSC10525 | 72857 | 3345 |
| Mbs (Myosin binding subunit) | DRSC10553 | 1.64e5 | 8761 |
| snk (snake) | DRSC17060 | 1.19e5 | 6421 |
| CG13192 | DRSC06317 | 1.01e5 | 4092 |
| CG42322 | DRSC15112 | 58435 | 3019 |
| CG42322 | DRSC15113 | 1.27e5 | 7523 |
| CG42322 | DRSC15114 | 1.53e5 | 6842 |
| RpS18 (Ribosomal protein S18) | DRSC07540 | 83005 | 4551 |
| CCAP-R (Crustacean cardioactive peptide receptor) | DRSC14891 | 1.15e5 | 6268 |
| CCAP-R (Crustacean cardioactive peptide receptor) | DRSC15967 | 1.04e5 | 5907 |
| Ugt50B3 (UDP-glycosyltransferase family 50 member B3) | DRSC04778 | 1.28e5 | 3551 |
| Ugt50B3 (UDP-glycosyltransferase family 50 member B3) | DRSC04779 | 1.30e5 | 5914 |
| CG34223 | DRSC05268 | 1.30e5 | 4981 |

Next part (3 carried over from the part before).
| predicted target | dsRNA | E2F firefly, rep 1 | Renilla normaliser, rep 1 |
| --- | --- | --- | --- |
| Ugt50B3 (UDP-glycosyltransferase family 50 member B3) | DRSC04778 | 1.28e5 | 3551 |
| Ugt50B3 (UDP-glycosyltransferase family 50 member B3) | DRSC04779 | 1.30e5 | 5914 |
| CG34223 | DRSC05268 | 1.30e5 | 4981 |
| CG31104 | DRSC14658 | 94111 | 5455 |
| CG13344 | DRSC06378 | 2851 | 221 |
| AstCC (Allatostatin double C) | DRSC02404 | 1.44e5 | 5136 |
| CG34393 | DRSC00419 | 1.56e5 | 5313 |
| CG34393 | DRSC00710 | 1.58e5 | 5259 |
| hng3 (hinge3) | DRSC08367 | 97209 | 4057 |
| Cpsf5 (Cleavage and polyadenylation specific factor 5) | DRSC10374 | 68585 | 2716 |
| Hmt4-20 (Histone methyltransferase 4-20) | DRSC18482 | 1497 | 924 |
| CG4619 | DRSC02764 | 87319 | 4006 |
| CG32687 | DRSC18210 | 1.12e5 | 5983 |
| CG32687 | DRSC18237 | 1.24e5 | 5666 |
| pcx (pecanex) | DRSC18186 | 1.06e5 | 5141 |
| pcx (pecanex) | DRSC18187 | 1.05e5 | 4987 |
| pcx (pecanex) | DRSC18188 | 95581 | 5098 |
| pcx (pecanex) | DRSC18189 | 99138 | 5224 |
| pcx (pecanex) | DRSC18190 | 1.12e5 | 5400 |
| pcx (pecanex) | DRSC18816 | 1963 | 7977 |
| CG15202 | DRSC19649 | 1.26e5 | 5758 |
| E(spl)mdelta-HLH (Enhancer of split mdelta, helix-loop-helix) | DRSC16698 | 1.28e5 | 7324 |
| SelR (Selenoprotein R) | DRSC16071 | 1.32e5 | 6538 |
| CG5986 | DRSC15931 | 79897 | 3649 |
| CG6753 | DRSC16108 | 1.41e5 | 6606 |
| Gfat1 (Glutamine:fructose-6-phosphate aminotransferase 1) | DRSC21219 | 1.18e5 | 6629 |
